# According to PubChem BioAssay AID1347076 (National Center for Advancing Translational Sciences (NCATS), 2019):
# In all, about 400,000 compounds went through this assay and about 13,000 (3.2%) were called active. Inconclusive results, whose numbers are uncertain, are shown with a selection of clear calls. The call rests on the fitted dose curve; in most records, active means well fitted cell-killing curve with a large enough effect; inconclusive means small, poorly fitted or top-dose-only effect, or effect the other way; inactive means flat fitted curve, though single readings scatter. Potencies beside an inconclusive call are fits to weak or partial responses and may not hold up.
# Assay: qHTS assay for MDR1-selective chemotherapeutics: Primary screen using the drug-selected MDR subline cells KB-V1; further: nearly all actives have a fitted effect of over 60% in size
# Conditions: KB-V1 MDR cells viability, CellTiter-Glo, 72 h; activity change, negative = cytotoxicity: at 46.1 µM (top of the series)
# Method in brief: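 qHTS viability screen in drug-selected KB-V1 MDR cells: 72 h compound treatment at 37 degrees C, ATP luminescence end point.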
# On the % scale 0 is the no-effect control and ±100 the full control effect; potency means the concentration at half of the fitted maximal effect.
Structure (SMILES),Potency,"activity change, negative = cytotoxicity"
CCOC(=O)C1=C(c2ccccc2)N(C)C(=O)NC1c1ccc(O)c(OC)c1 (centres undefined),"inconclusive: 23.1 µM [cytotoxic, single point]",–
CCOC(=O)c1[nH]c(C)c(C(=O)OCC(=O)Nc2sc3c(c2C#N)CCCCC3)c1C,"inconclusive: 20.6 µM [cytotoxic, single point]",–
COc1ccc(-[n+]2c(C)cc(/C=C3\Sc4ccccc4N3C)cc2C)cc1,"inconclusive: 20.6 µM [cytotoxic, single point]",–
O=c1c2ccc(Cl)cc2nc(-c2cccc(C(F)(F)F)c2)n1O,"inconclusive: 7.31 µM [cytotoxic, partial curve, poor fit]",–
CCOC(=O)c1sc(NC(=O)CSc2nc3c(cc2C#N)CCCCCC3)c(C#N)c1C,"inconclusive: 14.6 µM [cytotoxic, partial curve]",–
CCn1ccnc1CN1CCN(CC=C(C)C)C(CCO)C1 (centres undefined),"inconclusive: 0.231 µM [rising, partial curve]",–
COc1cc(C(=O)NCC(=O)N/N=C\C(C)=C/c2ccccc2)cc(OC)c1OC,"inconclusive: 18.4 µM [cytotoxic, single point]",–
Cc1cc(-c2nnc(SCC(=O)Nc3nc(-c4ccccc4)cs3)o2)no1,"inconclusive: 13 µM [rising, partial curve, poor fit]",–
CCN1C(=O)c2cccc3c(S(=O)(=O)Nc4ccccc4OC)ccc1c23,active: 16.4 µM,–
CCc1cc(=O)oc2cc(OCC(=O)NCC3CCC(C(=O)O)CC3)ccc12 (centres undefined),"inconclusive: 8.2 µM [rising, partial curve]",–
Cc1nc(-[n+]2nc(-c3ccncc3)nn2-c2ccccc2)sc1C,"inconclusive: 23.1 µM [cytotoxic, single point]",–
O=C(CC1CC1)Nc1ccc2c(c1)[C@H]1C[C@H](CC(=O)N3CCc4ccccc4C3)O[C@@H](CO)[C@H]1O2,"inconclusive: 23.1 µM [rising, partial curve, poor fit]",–
CCc1cc(C(=O)NNC(=S)NC(C)c2ccccc2)cs1 (centres undefined),"inconclusive: 25.9 µM [cytotoxic, single point]",–
Cc1ccc(NC(=O)CN(C)Cc2ccc(F)cc2)c([N+](=O)[O-])c1,active: 9.2 µM,–
CC(C)(C)OC(=O)NCCCCCNC(=O)c1nc[nH]c1C(=O)NCc1ccccc1,"inconclusive: 16.4 µM [cytotoxic, single point]",–
COc1ccc(C(=O)NCc2ccc(N3CCN(C(=O)OC(C)(C)C)CC3)cc2)cc1,active: 0.731 µM,–
COc1ccc(NS(=O)(=O)c2cccc(C(=O)NNC(=O)c3ccccc3O)c2)cc1,"inconclusive: 11.6 µM [cytotoxic, partial curve, poor fit]",–
COc1ccc(OC)c(NC(=O)N2CCCc3ccccc32)c1,"inconclusive: 29.1 µM [rising, single point]",–
CCn1c(=O)c(=O)n(CC)c2cc(S(=O)(=O)N3CCc4ccccc43)ccc21,"inconclusive: 14.6 µM [cytotoxic, partial curve, poor fit]",–
CC1CCN(C2(O)C(=O)Nc3ccc(Br)cc32)CC1 (centres undefined),"inconclusive: 1.03 µM [rising, full curve]",–
COc1ccc(NC(=O)c2ccc3c(=O)n(-c4ccc(OC)cc4OC)c(=S)[nH]c3c2)c(OC)c1,"inconclusive: 8.2 µM [cytotoxic, partial curve]",–
Cc1ccccc1C(=O)Oc1ccccc1N1C(=O)C2CC=CCC2C1=O (centres undefined),inactive,–
Cc1ccc(NC(=O)C2CCN(S(=O)(=O)c3ccc4c(c3)CC(C)N4C(=O)C3CCC3)CC2)nc1 (centres undefined),–,inconclusive: -12%

Structure (SMILES),Potency,"activity change, negative = cytotoxicity"
COc1ccccc1-n1cc(CN2CCc3onc(-c4ccc(Br)cc4)c3C2=O)nn1,"inconclusive: 20.6 µM [cytotoxic, single point]",–
CCNc1nc(Oc2ccc(C#N)cc2)cc(C(F)(F)F)n1,active: 3.26 µM,–
COc1ccc(N=C2C(=O)N3c4c(cccc42)C(C)=CC3(C)C)cc1,"inconclusive: 29.1 µM [rising, single point]",–
CCOC(=O)C1CCN(S(=O)(=O)c2cn(C)c(C)n2)CC1,"inconclusive: 23.1 µM [rising, partial curve, poor fit]",–
COc1ccc(-c2csc(/C=C/c3ccc4c(c3)OCO4)n2)cc1OC,inactive,–
Cc1ccc(N(CC(=O)NC2CCCCC2)C(=O)Cn2nnc(-c3ccc(C)o3)n2)cc1,"inconclusive: 5.8 µM [cytotoxic, partial curve]",–
Cc1ccccc1-c1cc2nc(NCc3ccccc3)n(C)c(=O)c2s1,inactive,–
CCN(C(=O)c1ccc(NC(=O)C2CCCCC2C(=O)O)cc1)c1ccccc1 (centres undefined),inactive,–
CCN(CC)c1ccc(CNCCCSc2nnnn2C)cc1,inactive,–
O=Cc1c[nH]c2ccc(NC(=O)OCc3ccccc3)cc12,"inconclusive: 18.4 µM [cytotoxic, partial curve, poor fit]",–
CCN1C[C@@H]2[C@@H]3C(=O)N(Cc4ccccc4)C(=O)[C@@H]3[C@](C)(C1=O)N2C(=O)c1ccc(F)cc1,inactive,–
COc1ccc(C2=CC(=O)OC3(CCCCC3)O2)cc1,inactive,–
CC[C@@H](Nc1ncnc2c1oc1ccccc12)C(=O)O,"inconclusive: 1.3 µM [cytotoxic, partial curve, poor fit]",–
CC(C)(C)c1ccc(CC(=O)N2CCC2(C)C(=O)NS(=O)(=O)c2cccs2)cc1 (centres undefined),inactive,–
Cc1oc2c(C)c(O)ccc2c(=O)c1-c1nncn1-c1ccccc1,"inconclusive: 10.3 µM [rising, partial curve, poor fit]",–
CCOC(=O)C1CCCN(C/C=C/c2ccccc2[N+](=O)[O-])C1 (centres undefined),"inconclusive: 16.4 µM [cytotoxic, single point]",–
Cc1oc2ncn(C)c(=O)c2c1C(=O)N1CCN(c2cccc(C(F)(F)F)c2)CC1,inactive,–
CC1(C)Cc2c(c(N3CCCC3)nc3sc4c(N5CCNCC5)ncnc4c23)CO1,inactive,–
CCNc1nc(NCC)nc(N/N=C/c2ccc([N+](=O)[O-])o2)n1,active: 20.6 µM,–
O=C(Nc1ccc(O)c(-c2nc3ccccc3o2)c1)C1(c2ccc(Cl)cc2)CCCC1,"inconclusive: 23.1 µM [cytotoxic, partial curve, poor fit]",–
COc1ccc(CC(=O)Nc2ccc(S(=O)(=O)N3CCCC3)cc2)c(OC)c1,"inconclusive: 14.6 µM [cytotoxic, single point]",–
O=C(NCC1CCCO1)C(c1cccs1)N(Cc1ccccc1)C(=O)c1ccc(-c2ccccc2)[nH]1 (centres undefined),active: 3.66 µM,–
CCCN(C(=O)c1cn(C)c(=O)c2cc(OC)c(OC)cc12)c1ccc(CC)cc1,inactive,–

Structure (SMILES),Potency,"activity change, negative = cytotoxicity"
CCc1ccccc1NC(=O)CCCSc1nc(-c2ccco2)cc(C(F)(F)F)n1,inactive,–
CCN(CC)S(=O)(=O)c1ccc(C)c(NC(=S)N2CCN(Cc3ccc4c(c3)OCO4)CC2)c1,"inconclusive: 6.51 µM [cytotoxic, partial curve]",–
CCc1cccc(C)c1NC(=O)CN1CCN(S(=O)(=O)c2ccc(C(C)(C)C)cc2)CC1,inactive,–
Cc1ccc(S(=O)(=O)Nc2cc(Cl)ccc2-n2cncn2)cc1,inactive,–
CCS(=O)(=O)N1Cc2ccccc2CC1C(=O)NCc1cccc(OC)c1 (centres undefined),"inconclusive: 10.3 µM [cytotoxic, partial curve, poor fit]",–
CCOCCc1nn2c(=O)cc(COC(=O)c3ccc(NC(=O)C4CCCCC4)cc3)nc2s1,inactive,–
COc1cc(C)c(Cc2cnc(N)nc2N)cc1OC,inactive,–
N#Cc1nc(-c2ccccc2)oc1NCC1CCCO1 (centres undefined),"inconclusive: 29.1 µM [cytotoxic, single point]",–
O=c1c2sccc2nc(SCc2cc(=O)n3cc(Cl)ccc3n2)n1-c1ccc(F)cc1,"inconclusive: 10.3 µM [cytotoxic, partial curve]",–
COc1ccc(-n2nc(C(=O)NCC(=O)N(C)Cc3ccccc3)c3ccccc3c2=O)cc1OC,"inconclusive: 7.31 µM [cytotoxic, partial curve, poor fit]",–
O=C(CS(=O)(=O)c1cccc2nsnc12)N1CCN(c2ccccc2F)CC1,inactive,–
C=CCn1c(=O)c2ccc(C(=O)NCc3ccccc3)cc2n(Cc2ccc(Cl)cc2)c1=O,"inconclusive: 5.17 µM [cytotoxic, partial curve, poor fit]",–
Cc1nn(-c2ccccc2)c(OC(=O)c2ccccc2Br)c1S(=O)(=O)c1ccccc1,inactive,–
CCOC(=O)C1=C(C)N=c2s/c(=C\c3ccc(O)c([N+](=O)[O-])c3)c(=O)n2C1c1ccccc1OC (centres undefined),"inconclusive: 32.6 µM [cytotoxic, single point]",–
O=C(Cc1ccc(Cl)cc1)Nc1cccnc1,"inconclusive: 16.4 µM [cytotoxic, partial curve, poor fit]",–
Cc1ccc(C2=N/C(=C/N3CCOCC3)C(=O)O2)cc1,inactive,–
COc1cc(F)c(C(=O)NC(C)(C)CO)cc1OC,inactive,–
CC(C(=O)Nc1cccc([N+](=O)[O-])c1)N1CCN(C/C=C/c2ccccc2)CC1 (centres undefined),active: 3.66 µM,–
CCCNC(=O)c1ccccc1NC(=O)CSCc1ccc(OC)cc1,inactive,–
N#Cc1cccc(NC(=O)c2cc(C3CCCCN3C(=O)c3cccs3)on2)c1 (centres undefined),inactive,–
O=C(Nc1nc(-c2cccs2)c(-c2cccs2)s1)C1CCCC1,active: 20.6 µM,–
NC(=O)c1cc(S(=O)(=O)N2CCCC2)ccc1OCCOc1ccccc1F,inactive,–
O=C(Cc1ccccc1)NN1C(=O)/C(=C/c2ccccc2C(=O)O)SC1=S,"inconclusive: 29.1 µM [rising, single point]",–

# A stretch taken from the entries so far, for reference:
Structure (SMILES),Potency,"activity change, negative = cytotoxicity"
CCc1cccc(C)c1NC(=O)CN1CCN(S(=O)(=O)c2ccc(C(C)(C)C)cc2)CC1,inactive,–
Cc1ccc(S(=O)(=O)Nc2cc(Cl)ccc2-n2cncn2)cc1,inactive,–
CCS(=O)(=O)N1Cc2ccccc2CC1C(=O)NCc1cccc(OC)c1 (centres undefined),"inconclusive: 10.3 µM [cytotoxic, partial curve, poor fit]",–
CCOCCc1nn2c(=O)cc(COC(=O)c3ccc(NC(=O)C4CCCCC4)cc3)nc2s1,inactive,–
COc1cc(C)c(Cc2cnc(N)nc2N)cc1OC,inactive,–
N#Cc1nc(-c2ccccc2)oc1NCC1CCCO1 (centres undefined),"inconclusive: 29.1 µM [cytotoxic, single point]",–
O=c1c2sccc2nc(SCc2cc(=O)n3cc(Cl)ccc3n2)n1-c1ccc(F)cc1,"inconclusive: 10.3 µM [cytotoxic, partial curve]",–
COc1ccc(-n2nc(C(=O)NCC(=O)N(C)Cc3ccccc3)c3ccccc3c2=O)cc1OC,"inconclusive: 7.31 µM [cytotoxic, partial curve, poor fit]",–
O=C(CS(=O)(=O)c1cccc2nsnc12)N1CCN(c2ccccc2F)CC1,inactive,–
C=CCn1c(=O)c2ccc(C(=O)NCc3ccccc3)cc2n(Cc2ccc(Cl)cc2)c1=O,"inconclusive: 5.17 µM [cytotoxic, partial curve, poor fit]",–
Cc1nn(-c2ccccc2)c(OC(=O)c2ccccc2Br)c1S(=O)(=O)c1ccccc1,inactive,–
CCOC(=O)C1=C(C)N=c2s/c(=C\c3ccc(O)c([N+](=O)[O-])c3)c(=O)n2C1c1ccccc1OC (centres undefined),"inconclusive: 32.6 µM [cytotoxic, single point]",–
O=C(Cc1ccc(Cl)cc1)Nc1cccnc1,"inconclusive: 16.4 µM [cytotoxic, partial curve, poor fit]",–
Cc1ccc(C2=N/C(=C/N3CCOCC3)C(=O)O2)cc1,inactive,–
COc1cc(F)c(C(=O)NC(C)(C)CO)cc1OC,inactive,–
CC(C(=O)Nc1cccc([N+](=O)[O-])c1)N1CCN(C/C=C/c2ccccc2)CC1 (centres undefined),active: 3.66 µM,–
CCCNC(=O)c1ccccc1NC(=O)CSCc1ccc(OC)cc1,inactive,–
